No constants are given. Whether binding was seen depends on the method and setting. Binding can be weak; no strength is given.
Target: GST-tagged DHHC9 (human) (UniProt Q9Y397)
Test: pull-down; GST pull-down: 200 ng His-tagged purified protein mixed with 100 ng GST fusion protein (or GST as control) in 50 mM Tris-HCl pH 7.5, 1% Triton X-100, 150 mM NaCl, 1 mM DTT, 0.5 mM EDTA for 1 h; glutathione agarose beads 30 min at 4 °C; immunoblot; both purified

By UniProt entry, the sequences of proteins in these tests, tags left out. Where a name states a change or a piece, a line headed by the entry shows the natural chain unless it says otherwise.
UniProt Q9Y397: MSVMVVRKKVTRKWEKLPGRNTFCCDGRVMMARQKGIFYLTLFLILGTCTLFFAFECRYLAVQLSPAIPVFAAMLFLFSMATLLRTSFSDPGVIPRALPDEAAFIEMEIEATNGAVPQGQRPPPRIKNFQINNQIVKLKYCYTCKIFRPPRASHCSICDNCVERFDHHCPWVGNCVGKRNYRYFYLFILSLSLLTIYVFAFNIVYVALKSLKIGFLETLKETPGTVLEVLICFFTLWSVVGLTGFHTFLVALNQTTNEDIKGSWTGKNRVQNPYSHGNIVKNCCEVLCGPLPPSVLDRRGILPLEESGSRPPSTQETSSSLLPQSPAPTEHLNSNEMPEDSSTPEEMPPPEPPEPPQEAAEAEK
UniProt P11166: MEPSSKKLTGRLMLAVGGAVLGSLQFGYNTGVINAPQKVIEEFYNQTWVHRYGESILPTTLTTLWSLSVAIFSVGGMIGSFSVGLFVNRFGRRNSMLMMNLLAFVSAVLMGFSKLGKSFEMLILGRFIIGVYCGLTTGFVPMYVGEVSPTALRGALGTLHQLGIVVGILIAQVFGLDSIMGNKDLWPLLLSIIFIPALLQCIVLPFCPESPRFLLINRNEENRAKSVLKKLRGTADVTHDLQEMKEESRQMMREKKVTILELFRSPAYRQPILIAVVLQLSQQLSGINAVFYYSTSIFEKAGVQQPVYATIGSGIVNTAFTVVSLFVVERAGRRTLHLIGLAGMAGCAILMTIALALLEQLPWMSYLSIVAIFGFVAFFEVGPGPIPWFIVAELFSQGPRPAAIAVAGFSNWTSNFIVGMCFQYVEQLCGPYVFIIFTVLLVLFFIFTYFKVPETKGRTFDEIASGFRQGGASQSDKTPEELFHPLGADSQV

- binding: binds
Substance: 6×His-tagged GLUT1 (from UniProt P11166 1-492)
